The source of these data is paper PMC5765009.

Amino acid sequences for entries named in this document (tags omitted). Residues count along the entry.
UniProt P11021, residues 19-654: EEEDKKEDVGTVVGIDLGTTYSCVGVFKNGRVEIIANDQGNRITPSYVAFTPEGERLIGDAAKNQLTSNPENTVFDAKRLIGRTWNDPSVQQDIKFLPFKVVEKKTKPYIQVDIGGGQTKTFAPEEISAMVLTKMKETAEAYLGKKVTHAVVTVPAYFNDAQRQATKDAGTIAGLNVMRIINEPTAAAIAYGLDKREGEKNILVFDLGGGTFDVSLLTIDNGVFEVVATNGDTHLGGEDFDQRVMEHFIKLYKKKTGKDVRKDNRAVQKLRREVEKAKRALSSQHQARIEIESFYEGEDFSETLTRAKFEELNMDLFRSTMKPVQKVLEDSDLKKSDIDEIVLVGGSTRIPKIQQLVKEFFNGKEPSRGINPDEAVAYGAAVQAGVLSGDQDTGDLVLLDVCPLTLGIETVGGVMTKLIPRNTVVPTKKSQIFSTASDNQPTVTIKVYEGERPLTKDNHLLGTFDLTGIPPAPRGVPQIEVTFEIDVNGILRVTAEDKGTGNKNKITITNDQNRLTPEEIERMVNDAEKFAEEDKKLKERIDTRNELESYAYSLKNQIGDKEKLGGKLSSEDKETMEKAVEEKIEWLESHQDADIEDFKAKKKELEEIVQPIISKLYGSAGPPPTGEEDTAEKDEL
UniProt Q99873: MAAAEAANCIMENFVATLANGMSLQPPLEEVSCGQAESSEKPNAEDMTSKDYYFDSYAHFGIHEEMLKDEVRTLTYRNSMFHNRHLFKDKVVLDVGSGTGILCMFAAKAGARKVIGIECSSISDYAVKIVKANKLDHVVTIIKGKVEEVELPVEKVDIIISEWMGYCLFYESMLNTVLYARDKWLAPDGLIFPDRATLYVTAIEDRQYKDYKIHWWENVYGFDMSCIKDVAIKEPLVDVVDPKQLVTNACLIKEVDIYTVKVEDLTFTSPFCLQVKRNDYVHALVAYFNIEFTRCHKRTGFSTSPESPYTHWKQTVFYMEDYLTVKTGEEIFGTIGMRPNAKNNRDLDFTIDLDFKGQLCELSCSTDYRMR
UniProt P28799, residues 18-593: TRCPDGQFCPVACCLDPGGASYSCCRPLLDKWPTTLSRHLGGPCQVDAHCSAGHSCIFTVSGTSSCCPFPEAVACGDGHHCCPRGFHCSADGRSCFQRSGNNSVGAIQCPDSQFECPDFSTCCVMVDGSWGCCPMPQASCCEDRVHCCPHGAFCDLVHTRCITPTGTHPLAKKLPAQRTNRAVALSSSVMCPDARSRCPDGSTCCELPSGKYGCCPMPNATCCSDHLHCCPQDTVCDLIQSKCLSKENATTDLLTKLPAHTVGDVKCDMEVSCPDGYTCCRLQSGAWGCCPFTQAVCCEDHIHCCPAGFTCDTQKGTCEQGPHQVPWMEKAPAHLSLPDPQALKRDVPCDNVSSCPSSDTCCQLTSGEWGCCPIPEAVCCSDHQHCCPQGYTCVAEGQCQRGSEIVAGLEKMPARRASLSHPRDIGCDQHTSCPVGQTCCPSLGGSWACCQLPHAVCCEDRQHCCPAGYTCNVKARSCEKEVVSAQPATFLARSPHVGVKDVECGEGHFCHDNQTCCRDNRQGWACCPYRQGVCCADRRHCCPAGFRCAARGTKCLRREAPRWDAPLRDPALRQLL
UniProt P50990: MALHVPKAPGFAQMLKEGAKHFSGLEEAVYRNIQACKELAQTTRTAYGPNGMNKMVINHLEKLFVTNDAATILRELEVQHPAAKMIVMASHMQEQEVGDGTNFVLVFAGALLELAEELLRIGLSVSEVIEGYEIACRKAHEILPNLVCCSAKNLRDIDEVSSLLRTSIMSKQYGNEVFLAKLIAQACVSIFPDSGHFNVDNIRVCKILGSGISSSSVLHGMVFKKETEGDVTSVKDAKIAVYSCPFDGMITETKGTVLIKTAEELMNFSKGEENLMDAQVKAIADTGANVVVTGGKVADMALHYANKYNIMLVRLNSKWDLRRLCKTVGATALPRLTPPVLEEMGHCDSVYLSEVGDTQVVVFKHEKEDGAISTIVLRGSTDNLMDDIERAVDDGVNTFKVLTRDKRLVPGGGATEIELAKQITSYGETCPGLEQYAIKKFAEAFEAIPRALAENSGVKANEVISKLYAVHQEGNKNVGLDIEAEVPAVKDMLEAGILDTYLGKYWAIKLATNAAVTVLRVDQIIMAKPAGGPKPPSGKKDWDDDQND

No constants are given. Whether binding was seen depends on the method and setting. Binding seen in cells or lysates may run through a third protein. Here binding means that the protein was enriched with, or labelled near, the bait; the list need not be complete.

The target in the test is Glucose regulated protein 78 (GRP78) (human (endogenous in OECM1, FaDu, BM2, NPC076)) (UniProt P11021). The test is described as follows: affinity purification with mass spectrometry; immunoprecipitates of PM fractions of OECM1 and FaDu cells with anti-GRP78 antibody against isotype control, 2% CHAPS; tryptic digests labelled with formaldehyde-D2 / formaldehyde, LC-MS/MS, Mascot with SwissProt 2010; candidates with D4/H4 ratio greater than 1.000.

Consider PRMT1 (from UniProt Q99873 1-371), for which the binding result is listed as “binds”.
In the case of “Progranulin (from UniProt P28799 18-593)” it was “binds”; in that of TCP-1 theta (from UniProt P50990 1-548), “binds”.

B1: GRXCR2 (protein, UniProt A6NFK2 1-248)
chain: MEDPEKKLNQKSDGKPRKVRFKISSSYSGRVLKQVFEDGQELESPKEEYPHSFLQESLETMDGVYGSGEVPRPQMCSPKLTAQRISVFREGNAYTLAGGQPRFNDYKANDHKPLPIIDFGKIIIYTNNLKIIRTPMDKRDFVRKILQKEEEAEEESLMNKEESYGGRDQHDRPLVEAESTLPQNRYTQEGDIPEDSCFHCRGSGSATCSLCHGSKFSMLANRFKESYRALRCPACNENGLQPCQICNQ
For the molecule B1, the binding entry is given as “binds”.

B2: Serpin H1 (protein, UniProt P50454 19-418)
chain: AEVKKPAAAAAPGTAEKLSPKAATLAERSAGLAFSLYQAMAKDQAVENILVSPVVVASSLGLVSLGGKATTASQAKAVLSAEQLRDEEVHAGLGELLRSLSNSTARNVTWKLGSRLYGPSSVSFADDFVRSSKQHYNCEHSKINFRDKRSALQSINEWAAQTTDGKLPEVTKDVERTDGALLVNAMFFKPHWDEKFHHKMVDNRGFMVTRSYTVGVMMMHRTGLYNYYDDEKEKLQIVEMPLAHKLSSLIILMPHHVEPLERLEKLLTKEQLKIWMGKMQKKAVAISLPKGVVEVTHDLQKHLAGLGLTEAIDKNKADLSRMSGKKDLYLASVFHATAFELDTDGNPFDQDIYGREELRSPKLFYADHPFIFLVRDTQSGSLLFIGRLVRPKGDKMRDEL
With B2, the binding entry is on record as “binds”.

B3: BBS4 (protein, UniProt Q96RK4 1-519)
chain: MAEERVATRTQFPVSTESQKPRQKKAPEFPILEKQNWLIHLHYIRKDYEACKAVIKEQLQETQGLCEYAIYVQALIFRLEGNIQESLELFQTCAVLSPQSADNLKQVARSLFLLGKHKAAIEVYNEAAKLNQKDWEISHNLGVCYIYLKQFNKAQDQLHNALNLNRHDLTYIMLGKIHLLEGDLDKAIEVYKKAVEFSPENTELLTTLGLLYLQLGIYQKAFEHLGNALTYDPTNYKAILAAGSMMQTHGDFDVALTKYRVVACAVPESPPLWNNIGMCFFGKKKYVAAISCLKRANYLAPFDWKILYNLGLVHLTMQQYASAFHFLSAAINFQPKMGELYMLLAVALTNLEDIENAKRAYAEAVHLDKCNPLVNLNYAVLLYNQGEKKNALAQYQEMEKKVSLLKDNSSLEFDSEMVEMAQKLGAALQVGEALVWTKPVKDPKSKHQTTSTSKPASFQQPLGSNQALGQAMSSAAAYRTLPSGAGGTSQFTKPPSLPLEPEPAVESSPTETSEQIREK
Regarding B3, the binding entry is on record as “binds”.

B4: BLOC1S2 (protein, UniProt Q6QNY1 1-142)
chain: MAAAAEGVLATRSDEPARDDAAVETAEEAKEPAEADITELCRDMFSKMATYLTGELTATSEDYKLLENMNKLTSLKYLEMKDIAINISRNLKDLNQKYAGLQPYLDQINVIEEQVAALEQAAYKLDAYSKKLEAKYKKLEKR
With B4, the binding entry is given as “binds”.
